Values from PubChem BioAssay AID504786 (Drosophila RNAi Screening Center, 2011)

- Assay: 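Positive regulators of HIF-driven reporter output in Drosophila cells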 (primary screen)
- Cells: Drosophila S2 cells with a stable HIF luciferase reporter
- Reagents: long dsRNA against Drosophila genes, about 0.2 µg dsRNA per well of a 384-well plate
- Timing: three days of knock-down, then 20 h of DFO before reading
- Challenge: desferrioxamine (DFO) at 100 µM, an iron chelator that mimics hypoxia, for 20 h
- Measured: 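Firefly luciferase driven by the mouse ldh-a hypoxia-response element, measured after 20 h of 100 µM DFO; z-scores per plate, higher means more signal lost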
- Reading the numbers: z-score: higher = stronger loss of HIF reporter signal
In all, the deposit lists about 21,000 reagents; this is a random part of those that have a named target and a result. 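Primary screen; positive scores mean lost reporter signal, so the sign may be inverted from the usual convention.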 The numbers tell different reagents against one gene apart. A plus sign joins genes that one reagent is predicted to hit.

Against Reepl1 the deposit lists z-score, replicate 1 = -0.3; z-score, replicate 2 = -0.7.
CR18275 + CR18166 + CG32817 scored z-score, replicate 1 = 0; z-score, replicate 2 = -0.2.
Ilp8 showed z-score, replicate 1 = -0.3; z-score, replicate 2 = -0.2.
Depletion of CG3527 came out at: z-score, replicate 1 = -0.1; z-score, replicate 2 = 1.5.
After knock-down of Mul1, the screen gave z-score, replicate 1 = -0.3; z-score, replicate 2 = -0.2.
With knock-down of CG1927 the results were z-score, replicate 1 = -0.3; z-score, replicate 2 = -0.6.
With knock-down of sqh the results were z-score, replicate 1 = -0.4; z-score, replicate 2 = -0.2.
Against CG9259 the deposit lists z-score, replicate 1 = -0.3; z-score, replicate 2 = -0.3.
Silencing of CG12640 came out at: z-score, replicate 1 = 0; z-score, replicate 2 = -0.2.
For Cpr97Ea the deposit lists z-score, replicate 1 = -0.4; z-score, replicate 2 = -0.4.
Depletion of rost resulted in: z-score, replicate 1 = -0.3; z-score, replicate 2 = -0.6.
Depletion of CG7166 came out at: z-score, replicate 1 = -0.3; z-score, replicate 2 = -1.
With knock-down of CG14207 #1 the results were z-score, replicate 1 = -0.3; z-score, replicate 2 = -0.2.
Knock-down of CG14207 #2 came out at: z-score, replicate 1 = -0.3; z-score, replicate 2 = -0.6.
140up gave z-score, replicate 1 = -0.3; z-score, replicate 2 = -0.6.
Knock-down of angel gave: z-score, replicate 1 = -0.3; z-score, replicate 2 = -0.7.
With knock-down of SMC5, the screen gave z-score, replicate 1 = -0.3; z-score, replicate 2 = 0.
CG33630 showed z-score, replicate 1 = -0.2; z-score, replicate 2 = -0.3.
Against CG43163 #1, the entry reads z-score, replicate 1 = -0.4; z-score, replicate 2 = -0.2.
For CG43163 #2 the deposit lists z-score, replicate 1 = 0; z-score, replicate 2 = -0.1.
l(2)dtl gave z-score, replicate 1 = 0.3; z-score, replicate 2 = 0.9.
With knock-down of Rpn12R the results were z-score, replicate 1 = -0.1; z-score, replicate 2 = 0.2.
After knock-down of CG9582, the record shows z-score, replicate 1 = -0.1; z-score, replicate 2 = -0.3.
Depletion of dar1 #1 gave: z-score, replicate 1 = -0.3; z-score, replicate 2 = -0.1.
For dar1 #2, the values are z-score, replicate 1 = -0.3; z-score, replicate 2 = -0.7.
nan scored z-score, replicate 1 = -0.3; z-score, replicate 2 = -0.2.

8 neighbouring entries from above, for reference:
CG7166 | z-score, replicate 1: -0.3; z-score, replicate 2: -1
CG14207 #1 | z-score, replicate 1: -0.3; z-score, replicate 2: -0.2
CG14207 #2 | z-score, replicate 1: -0.3; z-score, replicate 2: -0.6
140up | z-score, replicate 1: -0.3; z-score, replicate 2: -0.6
angel | z-score, replicate 1: -0.3; z-score, replicate 2: -0.7
SMC5 | z-score, replicate 1: -0.3; z-score, replicate 2: 0
CG33630 | z-score, replicate 1: -0.2; z-score, replicate 2: -0.3
CG43163 #1 | z-score, replicate 1: -0.4; z-score, replicate 2: -0.2

Continued.
After knock-down of CG32712, the record shows z-score, replicate 1 = -0.1; z-score, replicate 2 = -0.2.
For Acbp1 the deposit lists z-score, replicate 1 = -0.3; z-score, replicate 2 = -0.2.
Silencing of CG17272 came out at: z-score, replicate 1 = 0; z-score, replicate 2 = 0.5.
For SP1173, the values are z-score, replicate 1 = -0.3; z-score, replicate 2 = -0.4.
CG6276 scored z-score, replicate 1 = -0.1; z-score, replicate 2 = -0.1.
Knock-down of CG42493 resulted in: z-score, replicate 1 = 0.4; z-score, replicate 2 = 0.2.
After knock-down of Rsph3 #1 the results were z-score, replicate 1 = -0.3; z-score, replicate 2 = -0.5.
With knock-down of Rsph3 #2, the record shows z-score, replicate 1 = -0.5; z-score, replicate 2 = -0.4.
Depletion of osk came out at: z-score, replicate 1 = -0.4; z-score, replicate 2 = -0.4.
Depletion of betaNACtes1 gave: z-score, replicate 1 = -0.4; z-score, replicate 2 = -0.1.
After knock-down of Cont the results were z-score, replicate 1 = -0.3; z-score, replicate 2 = -0.1.
Knock-down of Spn42Dd resulted in: z-score, replicate 1 = -0.2; z-score, replicate 2 = 0.1.
After knock-down of cd, the screen gave z-score, replicate 1 = -0.3; z-score, replicate 2 = -0.3.
CG11381 showed z-score, replicate 1 = 1.7; z-score, replicate 2 = 0.7.
CG12725 gave z-score, replicate 1 = 0.1; z-score, replicate 2 = -0.2.
For Nup133, the values are z-score, replicate 1 = 0; z-score, replicate 2 = 0.7.
nompA showed z-score, replicate 1 = -0.4; z-score, replicate 2 = -0.1.
For unc-104, the values are z-score, replicate 1 = -0.3; z-score, replicate 2 = -0.2.
beat-VII #1 showed z-score, replicate 1 = -0.1; z-score, replicate 2 = -0.2.
Depletion of beat-VII #2 resulted in: z-score, replicate 1 = -0.4; z-score, replicate 2 = -0.5.
Knock-down of beat-VII #3 gave: z-score, replicate 1 = -0.7; z-score, replicate 2 = -0.3.
For MED16, the values are z-score, replicate 1 = 0.7; z-score, replicate 2 = 0.5.
For Cpr49Ad the deposit lists z-score, replicate 1 = -0.3; z-score, replicate 2 = -0.7.
alpha-Est3 gave z-score, replicate 1 = -0.4; z-score, replicate 2 = -0.1.
Knock-down of CG13131 gave: z-score, replicate 1 = 0; z-score, replicate 2 = -0.1.
